From patent US8822514B2, “Multi-cyclic compounds and methods of use” (Amgen Inc., priority 2006, dated 2014)
pIC50: −log10 of the molar value. Some entries share one result that the patent states for a list of compounds.

Sequences of proteins named here, by UniProt entry; tags and fusion partners are left off. Residues count along the entry.
UniProt Q02763, 23-1124: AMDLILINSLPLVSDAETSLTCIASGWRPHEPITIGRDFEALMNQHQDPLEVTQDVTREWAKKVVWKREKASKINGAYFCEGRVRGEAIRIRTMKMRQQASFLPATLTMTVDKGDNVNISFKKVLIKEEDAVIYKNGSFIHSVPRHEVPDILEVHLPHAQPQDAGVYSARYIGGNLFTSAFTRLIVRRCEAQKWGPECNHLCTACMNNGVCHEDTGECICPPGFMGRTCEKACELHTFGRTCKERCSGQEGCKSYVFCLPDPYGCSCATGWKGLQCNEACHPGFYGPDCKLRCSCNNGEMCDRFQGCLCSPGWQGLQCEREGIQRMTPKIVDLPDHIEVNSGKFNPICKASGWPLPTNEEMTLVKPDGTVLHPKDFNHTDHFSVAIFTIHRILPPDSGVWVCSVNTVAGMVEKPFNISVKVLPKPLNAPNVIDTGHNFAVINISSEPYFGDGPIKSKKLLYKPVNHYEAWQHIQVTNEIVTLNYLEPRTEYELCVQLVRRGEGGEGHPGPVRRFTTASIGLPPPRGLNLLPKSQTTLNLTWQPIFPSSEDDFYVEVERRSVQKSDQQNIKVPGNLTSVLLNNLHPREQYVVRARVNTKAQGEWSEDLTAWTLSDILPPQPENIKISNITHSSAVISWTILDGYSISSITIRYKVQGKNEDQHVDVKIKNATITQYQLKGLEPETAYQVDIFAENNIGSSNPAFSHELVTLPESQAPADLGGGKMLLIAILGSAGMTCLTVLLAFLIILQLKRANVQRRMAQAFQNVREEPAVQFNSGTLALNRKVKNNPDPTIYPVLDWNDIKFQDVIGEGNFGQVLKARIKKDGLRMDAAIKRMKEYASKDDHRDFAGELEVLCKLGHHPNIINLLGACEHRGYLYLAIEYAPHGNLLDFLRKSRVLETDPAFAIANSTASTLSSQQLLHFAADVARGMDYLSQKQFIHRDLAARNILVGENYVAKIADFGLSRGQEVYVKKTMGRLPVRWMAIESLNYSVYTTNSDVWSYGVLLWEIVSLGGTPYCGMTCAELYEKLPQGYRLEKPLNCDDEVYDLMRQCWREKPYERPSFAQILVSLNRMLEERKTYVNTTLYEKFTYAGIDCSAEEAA

biological target: Tie-2 kinase enzyme (Homo sapiens, UniProt Q02763); assay: Tie-2 Homogenous Time Resolved Flourescent (HTRF) kinase assay; format: biochemical; conditions: 0.01 mM ATP, about 90 minutes at RT; read-out: IC50 for the inhibition of Tie-2 as measured by the HTRF assay
Protocol: IC50's for the inhibition of the Tie-2 kinase enzyme for individual compounds were measured using an HTRF assay, utilizing the following procedure:
In a 96 well plate (available from Costar Co.) was placed 1 uL of each test and standard compound per well in 100% DMSO having a 25 uM final compound concentration (3-fold, 10 point dilution). To each well was added 20 uL of a reaction mix formed from […], 0.05% BSA (0.1 uL; from a 10% stock solution available from Sigma-Aldrich Co.), 0.002 mM of BLC HER-2 KKK (Biotinylated Long chain peptide; 0.04 uL; from a […] stock solution), 0.01 mM concentration of ATP (0.02 uL; commercially available from Sigma-Aldrich Co.) and the remaining solution was water (15.84 uL) to make to a total volume of 20 uL/well.
The reaction was initiated in each well by adding 20 uL per well of an enzyme preparation consisting of a 50 mM concentration of Hepes (1.0 uL; from a 1000 mM stock solution commercially available from Gibco Co.), 0.05% concentration of BSA (0.1 uL), 4 mM of DTT (0.08 uL; from a 1000 mM stock solution available from Sigma-Aldrich Co.), a 2.4×10^−7 concentration of Tie-2 (0.02 uL, from a 4 mM concentration stock), with the remaining volume being water (18.8 uL) to dilute the enzyme preparation to a total volume of 20 uL. The plate was incubated for about 90 minutes at RT. After incubation, a 160 uL of a filtered detection mixture, prepared from 0.001 mg/ml of SA-APC (0.0765 uL; available as a 2.09 mg/ml stock solution from Gibco), 0.03125 nM concentration of Eu-Ab (0.1597 uL; available in a 31.3 nM stock solution from Gibco), with the remaining volume being Detection buffer (159.73 uL), was added to each well to stop the reaction therein. The plate was then allowed to equilibrate for about 3 hr and read on a Ruby Star fluorescent reader (available from BMG Technologies, Inc.) using a 4 parameter fit using activity base to calculate the corresponding IC50's for the test and standard compounds in each well.

pIC50, ≥ 5.30:
Cc1ccc(C(=O)Nc2cccc(C(C)C)c2)cc1Oc1ncccc1-c1cn[nH]c1 [Example 1, 3-(3-(1H-pyrazol-4-yl)pyridin-2-yloxy)-N-(3-isopropylphenyl)-4-methylbenzamide]
CN(C)CCCN(C)c1ccc(C(F)(F)F)cc1NC(=O)c1cc(Oc2ncccc2-c2cnco2)ccc1F [Example 2, N-(2-((3-(dimethylamino)propyl)(methyl)amino)-5-(trifluoromethyl)phenyl)-2-fluoro-5-(3-(oxazol-5-yl)pyridin-2-yloxy)benzamide]
Cc1ccc(C(=O)Nc2cccc(C(C)C)c2)cc1Oc1ncccc1-c1cnn(Cc2ccccc2)c1 [Example 10, 3-(3-(1-benzyl-1H-pyrazol-4-yl)pyridin-2-yloxy)-N-(3-isopropylphenyl)-4-methylbenzamide]
COc1ccc(C2CCCCC2)cc1NC(=O)c1ccc(C)c(Oc2ncccc2-c2cn[nH]c2)c1 [Example 11, 3-(3-(1H-pyrazol-4-yl)pyridin-2-yloxy)-N-(5-cyclohexyl-2-methoxyphenyl)-4-methylbenzamide]
Cc1ccc(C(=O)Nc2cccc(C(C)C)c2)cc1Nc1ncccc1-c1nnn[nH]1 [Example 12, 3-(3-(1H-tetrazol-5-yl)pyridin-2-ylamino)-N-(3-isopropylphenyl)-4-methylbenzamide]
CC(C)c1cccc(NC(=O)c2cccc(Nc3ncccc3-c3nn[nH]n3)c2)c1 [Example 13, 3-(3-(2H-tetrazol-5-yl)pyridin-2-ylamino)-N-(3-isopropylphenyl)benzamide]
Cc1ccc(C(=O)Nc2cccc(C(C)C)c2)cc1Oc1ncccc1-c1cnco1 [Example 14, N-(3-isopropylphenyl)-4-methyl-3-(3-(oxazol-5-yl)pyridin-2-yloxy)benzamide]
Cc1ccc(C(=O)Nc2cccc(C(F)(F)F)c2)cc1Oc1ncccc1-c1ccn[nH]1 [Example 15, 3-(3-(1H-pyrazol-5-yl)pyridin-2-yloxy)-4-methyl-N-(3-(trifluoromethyl)phenyl)benzamide]
O=C(Nc1cccc(OC(F)(F)F)c1)c1cc(Oc2ncccc2-c2cnco2)ccc1F [Example 16, 2-fluoro-5-(3-(oxazol-5-yl)pyridin-2-yloxy)-N-(3-(trifluoromethoxy)phenyl)benzamide]
COc1cc(NC(=O)c2cc(Oc3ncccc3-c3cnco3)ccc2F)cc(C(F)(F)F)c1 [Example 17, 2-fluoro-N-(3-methoxy-5-(trifluoromethyl)phenyl)-5-(3-(oxazol-5-yl)pyridin-2-yloxy)benzamide]
Cc1ccc(C(=O)Nc2cccc(C(C)C)c2)cc1Oc1ccccc1-c1cnco1 [Example 18, N-(3-isopropylphenyl)-4-methyl-3-(2-(oxazol-5-yl)phenoxy)benzamide]
Cc1ccc(C(=O)Nc2cc(C(F)(F)F)ccc2N(C)CCCN(C)C)cc1Oc1ccccc1-c1cnco1 [Example 19, N-(2-((3-(dimethylamino)propyl)(methyl)amino)-5-(trifluoromethyl)phenyl)-4-methyl-3-(2-(oxazol-5-yl)phenoxy)benzamide]
Cc1ccc(C(=O)Nc2cc(C(F)(F)F)ccc2N(C)CCCN(C)C)cc1Oc1ncccc1-c1cnco1 [Example 20, N-(2-((3-(dimethylamino)propyl)(methyl)amino)-5-(trifluoromethyl)phenyl)-4-methyl-3-(3-(oxazol-5-yl)pyridin-2-yloxy)benzamide]
Cc1ccc(C(=O)Nc2cc(C(F)(F)F)ccc2N2CC[C@@H](N(C)C)C2)cc1Oc1ncccc1-c1cnco1 [Example 21, N-(2-((R)-3-(dimethylamino)pyrrolidin-1-yl)-5-(trifluoromethyl)phenyl)-4-methyl-3-(3-(oxazol-5-yl)pyridin-2-yloxy)benzamide]
Cc1ccc(C(=O)Nc2cccc(C(F)(F)F)c2)cc1Oc1ncccc1-c1cnco1 [Example 22, 4-methyl-3-(3-(oxazol-5-yl)pyridin-2-yloxy)-N-(3-(trifluoromethyl)phenyl)benzamide]
O=C(Nc1ccc(Oc2ncccc2-c2cn[nH]c2)cc1)c1ccccc1Nc1ccccc1 [Example 23, N-(4-(3-(1H-pyrazol-4-yl)pyridin-2-yloxy)phenyl)-2-(phenylamino)benzamide]
O=C(Nc1ccc(Oc2ncccc2-c2cn[nH]c2)cc1)c1cccc(C(F)(F)F)c1 [Example 24, N-(4-(3-(1H-pyrazol-4-yl)pyridin-2-yloxy)phenyl)-3-(trifluoromethyl)benzamide]
N-(4-(3-(3-amino-1H-pyrazol-4-yl)pyridin-2-yloxy)phenyl)-2-(phenylamino)benzamide [Example 25]
